Measured values published in patent US20210072252A1 (WASHINGTON UNIVERSITY, published 2021).

Biological target: peptide with N-terminal aspartate
Experiment: biolayer interferometry (Blitz), peptide-coated sensor, NAAB in 1x PBS, 1:1 fit, kd/ka

B1: AspNAAB (enzyme)
chain: LPLDSNHVNTEEARLKYRYLDLRRPEMAQRLKTRAKITSLVRRFMDDHGFLDIETPMLTKATPEGARDYLVPSRVHKGKFYALPQSPQLFKQLLMMSGFDRYYQIVKCFRDEDLRADRQPEFTQIDVETSFMTAPQVREVMEALVRHLWLEVKGVDLGDFPVMTFAEAERRYGSDKPDLRNPMELTDVADLLRSVEFAVFAGPANDPKGRVAALRVPGGASLTRKQIDEYDNFVKIYGAKGLAYIKVNERAKGLEGINSPVAKFLNAEIIEAILDRTAAQDGDMIFFGADNKKIVADAMGALRLKVGKDLGLTDESKWAPLWVIDFPMFEDDGEGGLTAMHHPFTSPKDMTAAELKAAPENAVANAYDMVINGYEVGGGSVRIHNGDMQQTVFGILGINEEEQREKFGFLLDALKYGTPPHAGLAFGLDRLTMLLTGTDNIRDVIAFPK
Which Kd does the source give for B1 here?
The Kd was 411 nM.
